Laboratory results as given in publication doi:10.1101/640185.
Results are given in words; binding and its absence hold for the method and conditions named. Binding seen in cells or lysates may run through a third protein. Some entries that bind do so weakly or less than the wild type.

Sequences of proteins named here, by UniProt entry; tags and fusion partners are left off.
UniProt Q9JIS5: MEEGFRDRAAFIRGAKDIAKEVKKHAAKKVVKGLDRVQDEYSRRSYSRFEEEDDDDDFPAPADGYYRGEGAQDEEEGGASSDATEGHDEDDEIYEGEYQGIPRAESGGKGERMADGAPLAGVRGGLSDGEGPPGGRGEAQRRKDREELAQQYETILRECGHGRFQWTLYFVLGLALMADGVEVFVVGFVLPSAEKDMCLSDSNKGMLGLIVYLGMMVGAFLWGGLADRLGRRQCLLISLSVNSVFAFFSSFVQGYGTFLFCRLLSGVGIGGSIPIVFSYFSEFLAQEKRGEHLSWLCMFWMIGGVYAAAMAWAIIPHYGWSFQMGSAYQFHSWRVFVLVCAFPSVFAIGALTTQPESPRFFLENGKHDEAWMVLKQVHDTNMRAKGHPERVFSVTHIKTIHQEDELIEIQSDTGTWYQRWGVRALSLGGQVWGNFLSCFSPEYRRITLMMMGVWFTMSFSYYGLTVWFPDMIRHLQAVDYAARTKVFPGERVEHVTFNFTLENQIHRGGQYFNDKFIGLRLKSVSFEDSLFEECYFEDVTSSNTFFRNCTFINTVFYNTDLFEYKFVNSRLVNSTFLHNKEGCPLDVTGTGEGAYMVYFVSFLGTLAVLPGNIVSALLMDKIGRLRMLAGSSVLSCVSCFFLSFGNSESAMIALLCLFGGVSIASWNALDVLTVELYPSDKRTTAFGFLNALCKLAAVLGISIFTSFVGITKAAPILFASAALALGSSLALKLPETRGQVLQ
UniProt Q8BG39: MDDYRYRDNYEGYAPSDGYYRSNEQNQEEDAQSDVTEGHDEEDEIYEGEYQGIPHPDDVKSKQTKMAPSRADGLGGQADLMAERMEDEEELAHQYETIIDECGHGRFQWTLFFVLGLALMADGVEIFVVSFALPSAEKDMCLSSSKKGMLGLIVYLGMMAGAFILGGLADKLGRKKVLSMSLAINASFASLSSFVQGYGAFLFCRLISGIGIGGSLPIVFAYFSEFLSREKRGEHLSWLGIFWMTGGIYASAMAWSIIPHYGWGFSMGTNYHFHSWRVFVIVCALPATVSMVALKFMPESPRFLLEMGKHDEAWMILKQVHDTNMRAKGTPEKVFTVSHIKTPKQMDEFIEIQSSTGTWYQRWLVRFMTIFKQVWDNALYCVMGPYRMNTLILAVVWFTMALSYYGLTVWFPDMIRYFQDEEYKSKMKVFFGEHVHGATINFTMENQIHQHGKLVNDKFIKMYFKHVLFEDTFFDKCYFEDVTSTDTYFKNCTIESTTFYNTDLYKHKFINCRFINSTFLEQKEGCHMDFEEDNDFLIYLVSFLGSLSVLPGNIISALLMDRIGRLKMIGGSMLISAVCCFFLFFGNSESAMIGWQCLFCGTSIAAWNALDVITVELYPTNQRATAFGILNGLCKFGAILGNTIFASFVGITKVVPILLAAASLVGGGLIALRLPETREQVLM

Molecular target: Synaptic Vesicle protein 2A (mouse (endogenous in mouse brain)) (UniProt Q9JIS5)
Test: co-IP

binding: binds
Substance: SV2B (from UniProt Q8BG39 1-683)
